Hit rate of the full screen: of about 53,000 sequences, about 3,700 (7%) were called active.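 The calls were made as follows: active = gene knockdowns whose robust z-score for IL-1 alpha signal is at least 2 or at most -2, so actives lie on both sides; inactive = the rest.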 Some of the results follow.

This test is described as follows: Components of the Cytosolic LPS Sensing Pathway: Gene Identification via Genome-wide siRNA Screen.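 Also: robust z of the log signal after scaling to non-targeting control siRNA wells of the plate.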 To be noted: RAW264.7 macrophages, IL-1a HTRF, actives lie on both sides, screened at 100 nM (by protocol), cells primed 5 h with Pam3CSK4 first. The procedure, abridged: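 Using IL-1a HTRF as read-out, the screen measured release from RAW264.7 cells after 48h siRNA knockdown (100 nM), 5 h Pam3CSK4 priming and 24 h cytosolic LipidA. Values were expressed relative to negative-control wells as robust z-scores.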
With GGACUUCGUGAACAAGAUCTT against Grin2b, the z-score was inactive: -0.439.
The figure for GGACAACACACCAUUUCUCTT against Pcbp1 is inactive: -0.317; for GGCAGAACAGGCAUUUUCATT against Nipal3 it is inactive: -1.86; for GCAAUUUCCAGAAGUUAUCTT against Baz2a it is inactive: 1.18.
For CCGGAUAUUUAUCAGUGAUTT against Tiam2 the value was inactive: 0.203; for GGGAUCAAAACAUACUGUGTT against Klra4, inactive: 0.0891.
Regarding GAGAACCAGGCUAUGUCUGTT against Defa-rs10, the z-score is inactive: 0.623.
The figure for GGAGCAGGCAUCGUGUUUATT against Cdh20 is inactive: 1.8; for GGGUUAGCUCCCGUCAUCATT against Zbtb41 it is inactive: -0.761.
On to GGAUUCAGGAGUUCAUUGATT against Maea, for which the z-score is inactive: 0.281.
As to GGCAGACGGUAAUAAACAUTT against Ralgapb, the z-score is inactive: -1.08.
The figure for GGUUGCACAAAAGAAGCUGTT against Pemt is inactive: -1.29; for CCGGAGUUAUACCGUAAGATT against Plaur it is inactive: -0.671.
The figure for GGAACUUUUUCAGAGCUCUTT against Senp3 is inactive: -1.6.
For “GCUAGAGAUCCGGAUUAAGTT against A930018P22Rik” the value was inactive: -0.412.
Take CCCUUAAAAUGUGCAUAUCTT against Tmem186: the z-score was inactive: 0.884.
As to GGUAUCAGACAAACACCAGTT against Syt5, the z-score is inactive: -1.12.
For GGAUUUUCCAGGCAUGAGGTT against Ehd3, the z-score is active: -2.24.
For CGUGACUUCUAUCAUACUUTT against Fntb the value was inactive: -0.254; for GGAUAAUUUAAACAUGGGATT against Cd276, inactive: -1.08.
For GGUCAUGUGAAUUUUUCUGTT against Eftud2 the value was inactive: -1.31.
The figure for GGAAGAUGAAAGAAGAGAGTT against Igdcc3 is inactive: 0.409; for GCUCCCAUACAGCACCUUCTT against Tbx2 it is inactive: -0.018; for GGGCUCUACAGUUUUUAAUTT against Atp5g3 it is inactive: 1.31.
As for GGCAAAAAGGCAGUAGCCATT against Ncl, the z-score is inactive: 0.644.
For “GCAGUUGUUUUGACUUACUTT against E330018D03Rik” the value was inactive: 0.8; for GCAACAAUCUGAGGACGACTT against Celf4, inactive: 0.667.
Regarding CGCACUUACCGUGUCCUAUTT against Homer3, the z-score was inactive: 0.0495.
For AUCUGAGGAAAUCGCCCUATT against Olfr1278 the value was inactive: 0.291.
The figure for GGAUUCUUUACAGAAUCAATT against Ahsa2 is inactive: -0.731.
For GGACUUAGAGAGUUUCUUGTT against Numa1 the value was inactive: -0.258; for GCCCAGAUUAUCAGAUCUGTT against Tnfaip2, inactive: 0.54; for CCCACUCCUUCUAAAAGUUTT against Cyp3a13, inactive: -0.909.
As for “GGUGAAAGAUGCCUCUAAGTT against Olfr1038-ps”, the z-score was inactive: 0.51.
In the case of GCAAAUCUUGUAAUAACACTT against Uty, the z-score is inactive: 0.254.
For GGACUGGUUCUUCAGUACCTT against Cradd the value was active: 2.21; for GGACAAUGGAGCUCAAGUCTT against Prelid3b, inactive: 0.752; for GCUCAAUCAAAAAGAUCCUTT against Spata2l, inactive: -0.907.
With GGAACUAUCUUGGUGAAGCTT against Robo2, the z-score is inactive: -0.977.
For GGUUGUUGACAAACAAAAATT against Fam161b the value was inactive: -1.2; for GGCCUCACUUGGAUCCUUATT against Zfx, inactive: 0.167.
As to GGCUCUCAGCUGAAAGAAATT against Wdr86, the z-score was inactive: 1.2.
The figure for GGAGUUUGAGGAAGAUCUGTT against Rbp1 is inactive: -0.953; for GGAUCUCAAGAGUGUUGUUTT against Rnf10 it is inactive: -0.396.
The figure for GGAAUAACUUUCCAUACCATT against Zfp959 is inactive: 0.508; for GGUCACUGUGCAAUGAAAATT against Olfr435 it is inactive: -0.535; for GGAUAAAACCAGAACUCUATT against Syt10 it is inactive: -0.413.
With GCCCAUUACCAAGCACAUCTT against Psma2, the z-score is inactive: -1.72.
The figure for GGCCCAGAACCGCAUUAAATT against Pdlim4 is inactive: 0.0557.
For GCUACAAGUGUUGCCUGAATT against Slit1 the value was inactive: 1.21; for GCUUGUUGAAAGGCCGAGCTT against Ankmy2, inactive: 0.142.
Regarding GGAGCUAAGACAGUUUGGATT against Uroc1, the z-score was inactive: 1.06.
The figure for GGUGAACAAUACGGCUGUGTT against Tmem245 is inactive: -0.146; for “GGAGCUCCAGCUUCUUGAATT against E130309D02Rik” it is inactive: 0.717.
The figure for GGUGGUUUGUGAUUGGCUUTT against Ctnnbip1 is inactive: 0.533; for GCGAUCAAAAUUGUGUCACTT against Minar2 it is inactive: -0.776.
The figure for GGAUAUCAUCGUGUUUAUUTT against Vps45 is inactive: 0.612; for GCAGAAACAAGGUUGAGAATT against Tgm6 it is inactive: 1.1.
For GCAUCUGCAUUUUUUGCUATT against Prox1, the z-score was inactive: 1.29.
As for GGCCAUCAUGAAGAUUGCCTT against Htr2c, the z-score is inactive: -0.995.
The figure for GGGAGCUGUUAACCUCAUCTT against Mthfr is active: 3.34.
Regarding GCACAAAUUCAUCACACGATT against Stk25, the z-score was inactive: 1.29.
In the case of GGCAUCGAGAUUUAAUUGATT against Usp27x, the z-score is inactive: -0.179.
For GGAUUUGACCGUAAAAAGATT against Pcsk2 the value was inactive: 0.439; for GGCCAUUUGUUAGGACCUGTT against Prmt6, inactive: 0.205; for GGCUCAAAGUCCUCAGAGCTT against Atp6v1e1, active: -2.15.
For GGAAACAUGAUGUUUUAAGTT against Bcl9 the value was inactive: -0.183.
The figure for “GGAAAACAUGUUCUCAUCUTT against 4930433N12Rik” is inactive: 0.937; for “GGAAUGUCCAAAGCAUUUATT against Olfr911-ps1” it is inactive: -0.421; for GGUGUUCCAAGAGUCGUCATT against Hrob it is inactive: 0.196.
On to CCACUUGGUGCUAAAAAAATT against Pgap2, for which the z-score was inactive: -0.319.
In the case of GCAGCUUAUCUACCUGUACTT against Chad, the z-score was inactive: -1.77.
With GGCCAUGACGAGGAAGAUGTT against Sv2b, the z-score was inactive: -0.865.
On to GCAUAUGACACCGUAUCAGTT against Gprc5d, for which the z-score is inactive: 0.914.
For GGACACAGAAAAAGUUGAATT against Tbc1d4 the value was inactive: -0.0174; for CGUAUGACUAAGGAUGAAUTT against Lrrc57, inactive: 0.849.
For GGGUACCUUCUGAUGUUUUTT against Slx1b the value was inactive: 0.0863.
The figure for GGCGCAUGUUUCCAGCAAUTT against Tbx18 is inactive: -0.0344; for CCUGUUGCUUACAAUUUUUTT against Yy1 it is inactive: 0.283.
Take GGUGCUUCUUUUGAGAAUGTT against Engase: the z-score was inactive: -1.77.
Turning to GGACAACAACGAGACCUAATT against Osbpl11, the z-score is inactive: -1.75.
For GGAUCAUGGGUAUGGUACUTT against Dhx36, the z-score was inactive: -1.52.
As for GCCCAACACUUGUUAAAGCTT against Fdxr, the z-score was inactive: -0.74.
The figure for GCCGAGCUCAAUGUGGGUATT against Bsn is inactive: 1.11; for GAAAAAUCAAAGAGAUUGGTT against Slc26a11 it is inactive: 0.0264.
For GGAUCUUGAACAAACCUGGTT against Akr1b3 the value was inactive: -1.64; for GCCGACAGAUUGAAAUUCGTT against Supv3l1, active: 2.79; for GGGAAGGUGGUGGAUCUACTT against Adss, inactive: 0.351.
The figure for GGCUUUUCUGGCUAUCCACTT against Anxa7 is inactive: -0.774.
With CCAUUUCUAAGUGUGAAAGTT against Vsir, the z-score is inactive: -0.196.
The figure for GGCCUGGAAGUCAUAUCUGTT against Grhl2 is inactive: -0.293; for GGAUAUGACUGAUAUUGAUTT against Il18 it is inactive: 0.164.
On to GGUAAAAACCAGACAGAUGTT against Olfr835, for which the z-score is inactive: 0.412.
For CGUCGUAGCAAACCACCAATT against Tnf the value was inactive: -1.07; for GGGACUUCAAAAGCAAGAATT against Acvr2b, inactive: 0.209.
The figure for CGGGCUCUUGUAGAUUUCATT against Ccdc86 is active: 3.22.
As for CCGGUCACUUGAAAUCAUGTT against Spp2, the z-score was inactive: -0.976.
The figure for GCAUUGAGUGCAUUAGAAUTT against Gnai1 is inactive: -1.28.
In the case of GGCUACAUUGUCUCAUUGUTT against Opn1mw, the z-score is inactive: -0.59.
For CCUGGUGUAGAAGUAUAUUTT against Lcat the value was inactive: -0.299.
For the sequence GCACAAUCUUGUCAAAUUGTT against Birc2, the z-score was inactive: -0.934.
The figure for GGUUCUUGUUUGUUGUGGUTT against Olfr94 is inactive: -0.395; for GGUGAUAUGUGUGGGCUUGTT against Fahd2a it is active: -2.06; for GCAGUGUUUACUUAUCACGTT against Il10ra it is inactive: 0.472.
For CCUUUUGAGAGCUCCAGAUTT against Ptrh1 the value was inactive: -0.273; for GGCCUUUGAUGACAUGUACTT against Bpifb1, inactive: -0.378; for GCUGCUGGAUGCAACCAAATT against Slc16a3, inactive: -0.379.

These data come from PubChem BioAssay AID1508600 (Functional Genomics Laboratory (NCATS/FGL), 2020).
